The results in this text go back to paper doi:10.1101/2024.07.08.602551.

By UniProt entry, the sequences of proteins in these tests, tags left out. Where a name states a change or a piece, a line headed by the entry shows the natural chain unless it says otherwise.
UniProt Q24025: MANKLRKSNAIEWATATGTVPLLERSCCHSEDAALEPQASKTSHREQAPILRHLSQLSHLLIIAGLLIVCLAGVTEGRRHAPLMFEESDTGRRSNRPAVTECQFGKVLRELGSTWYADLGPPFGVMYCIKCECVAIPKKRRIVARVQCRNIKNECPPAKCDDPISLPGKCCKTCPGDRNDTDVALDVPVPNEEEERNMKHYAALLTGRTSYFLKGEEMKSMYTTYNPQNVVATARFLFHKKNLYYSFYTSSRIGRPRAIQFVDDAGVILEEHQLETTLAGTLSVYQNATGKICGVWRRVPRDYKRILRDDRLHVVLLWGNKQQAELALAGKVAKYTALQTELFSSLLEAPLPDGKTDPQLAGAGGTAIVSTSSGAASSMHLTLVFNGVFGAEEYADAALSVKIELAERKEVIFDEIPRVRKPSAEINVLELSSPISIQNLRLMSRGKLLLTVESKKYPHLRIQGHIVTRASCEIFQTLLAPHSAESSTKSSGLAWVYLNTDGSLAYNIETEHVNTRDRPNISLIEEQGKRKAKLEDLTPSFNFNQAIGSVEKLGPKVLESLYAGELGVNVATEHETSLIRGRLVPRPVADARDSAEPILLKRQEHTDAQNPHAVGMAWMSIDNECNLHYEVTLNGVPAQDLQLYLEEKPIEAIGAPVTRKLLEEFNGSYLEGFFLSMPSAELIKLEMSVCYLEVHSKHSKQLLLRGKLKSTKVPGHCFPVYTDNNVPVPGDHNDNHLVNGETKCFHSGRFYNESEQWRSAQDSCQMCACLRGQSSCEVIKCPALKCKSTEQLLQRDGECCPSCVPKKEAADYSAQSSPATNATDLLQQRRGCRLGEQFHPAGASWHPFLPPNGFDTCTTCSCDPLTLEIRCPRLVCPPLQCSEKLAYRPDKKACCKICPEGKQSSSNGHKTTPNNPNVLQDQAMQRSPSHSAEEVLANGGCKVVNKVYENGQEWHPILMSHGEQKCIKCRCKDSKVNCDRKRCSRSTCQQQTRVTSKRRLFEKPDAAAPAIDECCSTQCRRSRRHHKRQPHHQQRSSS
UniProt Q9H2X0: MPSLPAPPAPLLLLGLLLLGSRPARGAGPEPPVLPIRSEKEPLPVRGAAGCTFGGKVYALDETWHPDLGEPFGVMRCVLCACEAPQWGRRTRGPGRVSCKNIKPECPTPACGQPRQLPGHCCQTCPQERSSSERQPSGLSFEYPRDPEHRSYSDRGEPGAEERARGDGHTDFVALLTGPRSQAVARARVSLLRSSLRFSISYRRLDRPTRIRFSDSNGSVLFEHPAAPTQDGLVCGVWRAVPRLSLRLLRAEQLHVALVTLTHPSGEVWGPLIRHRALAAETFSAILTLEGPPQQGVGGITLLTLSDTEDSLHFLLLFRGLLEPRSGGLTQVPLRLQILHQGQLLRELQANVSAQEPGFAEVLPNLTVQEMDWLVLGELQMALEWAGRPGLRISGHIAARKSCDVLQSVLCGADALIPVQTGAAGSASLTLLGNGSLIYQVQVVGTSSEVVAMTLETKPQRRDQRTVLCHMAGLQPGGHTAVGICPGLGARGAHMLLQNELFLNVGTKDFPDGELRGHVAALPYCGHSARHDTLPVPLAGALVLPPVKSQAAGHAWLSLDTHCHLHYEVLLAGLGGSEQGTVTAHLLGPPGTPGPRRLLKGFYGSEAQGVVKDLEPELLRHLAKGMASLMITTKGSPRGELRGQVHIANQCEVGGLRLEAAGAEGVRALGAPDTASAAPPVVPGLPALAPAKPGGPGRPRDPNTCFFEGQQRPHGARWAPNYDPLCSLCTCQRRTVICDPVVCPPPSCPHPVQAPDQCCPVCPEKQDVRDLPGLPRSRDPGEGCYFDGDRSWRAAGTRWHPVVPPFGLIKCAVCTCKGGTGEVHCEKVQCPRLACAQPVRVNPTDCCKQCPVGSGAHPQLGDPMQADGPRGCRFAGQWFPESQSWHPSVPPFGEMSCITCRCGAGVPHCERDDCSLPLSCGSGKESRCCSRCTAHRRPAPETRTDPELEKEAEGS

Test [1] deals with T1, Drosophila Twisted gastrulation with C-terminal ALFA tag (Drosophila) (UniProt P54356).
T1 sequence: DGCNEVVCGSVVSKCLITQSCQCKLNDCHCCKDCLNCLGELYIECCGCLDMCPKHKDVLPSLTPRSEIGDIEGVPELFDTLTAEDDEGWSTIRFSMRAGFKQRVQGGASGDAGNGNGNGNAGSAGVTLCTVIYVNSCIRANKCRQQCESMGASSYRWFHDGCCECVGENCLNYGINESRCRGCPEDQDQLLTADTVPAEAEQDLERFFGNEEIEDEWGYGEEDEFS
As to the kind of experiment: co-IP.

For test [2], the target named is T2, Drosophila Tsg double mutant Leu100Ala, Δtail with ALFA tag (Drosophila) (UniProt P54356).
T2 sequence: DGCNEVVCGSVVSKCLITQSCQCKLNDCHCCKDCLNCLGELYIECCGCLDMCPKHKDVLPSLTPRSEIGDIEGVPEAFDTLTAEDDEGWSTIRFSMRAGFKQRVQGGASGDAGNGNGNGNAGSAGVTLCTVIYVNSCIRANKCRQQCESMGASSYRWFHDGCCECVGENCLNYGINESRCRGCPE
Nature of the test: co-IP.

Test [3] has as its target T1, Drosophila Twisted gastrulation with C-terminal ALFA tag (Drosophila). As to the kind of experiment: co-IP. This is another data set of the same source.
Test [4] has the same target. As to the kind of experiment: co-IP. The source holds these as a separate data set.
Test [5] concerns the target T3, human Twisted gastrulation Leu103Ala (human) (UniProt Q9GZX9).
T3 sequence: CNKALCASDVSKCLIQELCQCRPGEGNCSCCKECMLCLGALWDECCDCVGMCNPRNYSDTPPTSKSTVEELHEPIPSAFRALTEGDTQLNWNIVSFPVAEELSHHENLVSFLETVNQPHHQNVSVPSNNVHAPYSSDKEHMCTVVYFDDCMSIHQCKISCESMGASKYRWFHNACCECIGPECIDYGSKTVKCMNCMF
As to the kind of experiment: SPR.

Where two headings read alike, the source gives them in different places. No constants are given. Whether binding was seen depends on the method and setting. For some assays here: Binding seen in cells or lysates may run through a third protein. For some assays here: Binding can be weak; no strength is given. For some assays here: Sequences can lack the tags named with a protein.

As to “Drosophila Short gastrulation with Myc tag (from UniProt Q24025)”, the binding result in test [1] was “binds”; in test [2], “no binding”; in test [3], “binds”; in test [4], “binds”.

On to “human ΔN-Chordin (from UniProt Q9H2X0) (domain or fragment)”, for which the binding result in test [5] is listed as “no binding”.
